Experimental data: PubChem BioAssay AID652259 (Drosophila RNAi Screening Center, 2013)
Assay: 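Genome-wide hunt for genes that control Wingless pathway activity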 (primary screen). System: Drosophila clone 8 imaginal disc epithelial cells. Reagents: long dsRNA against Drosophila genes. Conditions: pathway stimulated by co-transfected Wingless expression plasmid. Read-out: 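Dual luciferase reads per well after Wingless plasmid stimulation: reporter firefly light and Renilla control light; activity is firefly divided by Renilla, a ratio not deposited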. Scale: firefly reporter light: higher = more Wg reporter light, before normalisation; Renilla control light: higher = more transfected or surviving cells. Call rule: 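a knock-down is a candidate when at least two out of four statistical tests show it departing from its plate mean; one test alone signals a weak candidate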. Calls: active = candidate regulator (raises or lowers reporter); inactive = not a candidate.
In all, the deposit lists about 22,000 reagents; shown is an unselected part of those with a known target gene and a result. Over the whole deposit, 233 (1.1%) got an active call. 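Light values are raw, unnormalised plate reads; the ratio scores behind the reporter calls were not deposited.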 Entries without a mark were called inactive. Reagents against one gene are numbered here. A plus sign joins genes that one reagent is predicted to hit. Not given: the amount of reagent, the time to read-out, the dose of the treatment.

gene | dsRNA no. | reporter change call, replicate 1 | firefly reporter light, replicate 1 | firefly reporter light, replicate 2 | Renilla control light, replicate 1 | Renilla control light, replicate 2
CG17752 | 1 | – | 16950 | – | 3482 | –
Phf7 | 1 | – | 4441 | 5877 | 971 | 2320
CG6574 | 1 | – | 10544 | – | 2853 | –
BomBc3 | 1 | – | 34834 | – | 8957 | –
CG12499 | 1 | – | 39516 | – | 8489 | –
CG1907 | 1 | – | 3005 | 9789 | 1696 | 3319
CG31769 | 1 | – | 21090 | – | 11947 | –
Adck5 | 1 | – | 5554 | – | 2724 | –
Clk | 1 | – | 1927 | 12017 | 935 | 2439
Drsl6 | 1 | – | 8131 | – | 3756 | –
Oli | 1 | – | 9793 | – | 2928 | –
Ntf-2r | 1 | – | 3287 | 7636 | 632 | 1620
CG34328 | 1 | – | 4481 | – | 1480 | –
Rich | 1 | – | 10912 | – | 2355 | –
CG6978 | 1 | – | 22700 | – | 11431 | –
CG15472 | 1 | – | 19168 | – | 8470 | –
CG1636 | 1 | Wg reporter activity lowered | 4340 | 7725 | 1365 | 3121
mthl11 | 1 | – | 3961 | – | 1496 | –
lbl | 1 | – | 37092 | – | 6336 | –
SmydA-2 | 1 | – | 7606 | – | 2087 | –
Pka-R1 | 1 | – | 3987 | – | 1104 | –
Pka-R1 | 2 | – | 5613 | – | 1979 | –
CG3419 (retired record) | 1 | – | 2247 | 5923 | 666 | 2108
CG3419 (retired record) | 2 | – | 2956 | 5773 | 838 | 2326
Ctf4 | 1 | – | 10784 | – | 3056 | –
CG31075 | 1 | – | 7600 | – | 2909 | –
Ir21a + asRNA:CR43609 | 1 | – | 2696 | 6720 | 1058 | 2338
CG15373 | 1 | – | 23042 | – | 10236 | –
Cpr64Ac | 1 | – | 5577 | – | 3271 | –
Saf-B | 1 | – | 2594 | 5541 | 893 | 1462
SERCA | 1 | – | 15453 | – | 3632 | –
CG9961 | 1 | – | 1788 | 5451 | 804 | 1696
CG31988 | 1 | – | 4.63e5 | 4.64e5 | 1.60e5 | 78597
CG13331 | 1 | – | 5345 | – | 2443 | –
Gyc76C + CG42637 | 1 | – | 4294 | – | 1719 | –
Rs1 | 1 | – | 8237 | – | 2598 | –
Men | 1 | – | 4018 | – | 1149 | –
Men | 2 | – | 20208 | – | 7514 | –
Men | 3 | – | 1.14e6 | 7.26e5 | 4.33e5 | 3.42e5
Pi4KIIIalpha | 1 | – | 22715 | – | 14661 | –
CG30423 | 1 | – | 17906 | – | 9515 | –
CG30440 | 1 | – | 21634 | – | 10704 | –
CG30440 | 2 | – | 2385 | 9104 | 872 | 2531
CG30440 | 3 | – | 3200 | 10297 | 677 | 1872
Ho | 1 | – | 7457 | – | 2631 | –
Col4a1 | 1 | – | 8761 | – | 4260 | –
CG14053 | 1 | – | 14473 | – | 10483 | –
CG42579 | 1 | – | 3696 | – | 1408 | –
CG30122 | 1 | – | 24496 | – | 6803 | –
CG30122 | 2 | – | 11511 | – | 2621 | –
CG13587 | 1 | – | 2658 | 6861 | 901 | 2596
Pvf1 | 1 | – | 2602 | 9129 | 1420 | 3356
mip120 | 1 | – | 9232 | – | 4105 | –
CG3191 | 1 | – | 3776 | 8275 | 1529 | 3450
CG12883 | 1 | – | 6592 | – | 2058 | –
CG3071 | 1 | – | 3731 | 8507 | 1556 | 3763
alphaTry | 1 | – | 10454 | – | 3932 | –
sdk | 1 | – | 1958 | 4917 | 949 | 1076
Pde9 | 1 | – | 16871 | – | 7588 | –
Pde9 | 2 | – | 14624 | – | 8420 | –
Pde9 | 3 | – | 14635 | – | 7832 | –
Pde9 | 4 | – | 26260 | – | 12711 | –
reb | 1 | – | 4732 | – | 2186 | –
Rpn10 | 1 | – | 14421 | – | 5227 | –
t-Grip91 | 1 | – | 19801 | – | 9312 | –
CG32655 | 1 | – | 1898 | – | 1008 | –
Sec10 | 1 | – | 2818 | 5923 | 988 | 1367
CG32202 | 1 | – | 8288 | – | 2470 | –
CG9568 | 1 | – | 3161 | 6933 | 935 | 3116
Gr61a | 1 | – | 8251 | – | 2584 | –
CG7888 | 1 | – | 4448 | – | 2098 | –
tHMG2 | 1 | – | 37712 | – | 8420 | –
CG2614 | 1 | – | 3208 | – | 458 | –

10 entries already listed, ordered by “firefly reporter light, replicate 1”, high to low.
gene | dsRNA no. | reporter change call, replicate 1 | firefly reporter light, replicate 1 | firefly reporter light, replicate 2 | Renilla control light, replicate 1 | Renilla control light, replicate 2
Pde9 | 4 | – | 26260 | – | 12711 | –
t-Grip91 | 1 | – | 19801 | – | 9312 | –
Pde9 | 1 | – | 16871 | – | 7588 | –
Pde9 | 3 | – | 14635 | – | 7832 | –
Pde9 | 2 | – | 14624 | – | 8420 | –
Rpn10 | 1 | – | 14421 | – | 5227 | –
alphaTry | 1 | – | 10454 | – | 3932 | –
reb | 1 | – | 4732 | – | 2186 | –
CG3071 | 1 | – | 3731 | 8507 | 1556 | 3763
sdk | 1 | – | 1958 | 4917 | 949 | 1076
